Assay results: article PMC7862700
This is a selection; strong and weak results do not stand in their true shares. For some assays here: At the low end of the ranking, values are background and their order means little. This is one part of the list. For some assays here: Construct or isoform of the protein are uncertain.

Amino acid sequences for entries named in this document (tags omitted). A change or cut given only in a name is not applied to a line headed by its entry.
UniProt P32519: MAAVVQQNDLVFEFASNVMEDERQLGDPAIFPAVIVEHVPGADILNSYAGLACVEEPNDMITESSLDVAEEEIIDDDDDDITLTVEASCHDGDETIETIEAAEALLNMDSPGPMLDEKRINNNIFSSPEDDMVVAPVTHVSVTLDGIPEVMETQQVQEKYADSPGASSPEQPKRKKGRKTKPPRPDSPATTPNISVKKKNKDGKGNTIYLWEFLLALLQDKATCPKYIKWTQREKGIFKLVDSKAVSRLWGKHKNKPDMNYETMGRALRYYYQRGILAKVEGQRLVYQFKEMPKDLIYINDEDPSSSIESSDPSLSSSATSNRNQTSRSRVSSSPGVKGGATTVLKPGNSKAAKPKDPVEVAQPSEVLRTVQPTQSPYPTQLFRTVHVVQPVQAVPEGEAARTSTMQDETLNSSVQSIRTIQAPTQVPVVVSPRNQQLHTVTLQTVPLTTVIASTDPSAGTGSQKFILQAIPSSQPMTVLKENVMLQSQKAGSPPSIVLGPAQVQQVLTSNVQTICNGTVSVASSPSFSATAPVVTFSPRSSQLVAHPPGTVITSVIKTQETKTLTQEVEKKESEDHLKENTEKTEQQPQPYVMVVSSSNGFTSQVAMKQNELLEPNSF
UniProt P50549: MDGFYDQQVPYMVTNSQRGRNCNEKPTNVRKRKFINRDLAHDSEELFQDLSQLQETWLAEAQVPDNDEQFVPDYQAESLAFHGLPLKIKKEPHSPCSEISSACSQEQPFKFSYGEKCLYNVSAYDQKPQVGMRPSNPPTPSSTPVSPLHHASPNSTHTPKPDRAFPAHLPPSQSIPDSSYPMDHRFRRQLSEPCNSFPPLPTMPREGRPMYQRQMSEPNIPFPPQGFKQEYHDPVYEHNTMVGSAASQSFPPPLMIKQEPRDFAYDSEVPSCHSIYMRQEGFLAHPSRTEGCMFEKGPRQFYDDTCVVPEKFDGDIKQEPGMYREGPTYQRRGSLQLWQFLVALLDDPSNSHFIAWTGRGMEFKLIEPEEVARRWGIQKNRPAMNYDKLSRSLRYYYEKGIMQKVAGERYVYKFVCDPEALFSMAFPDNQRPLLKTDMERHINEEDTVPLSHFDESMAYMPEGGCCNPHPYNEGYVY

Experiments:
Test in all cases: DAPPL (digital affinity profiling via proximity ligation, sequencing)
Conditions in all cases: 10 mM Tris-HCl pH 7.5, 50 mM NaCl, 1 mM DTT, 4% glycerol, room temperature, 30 min; GST-TFs on glutathione beads, 16-mer random dsDNA library, 0.1% …; high values mean tight binding; double strand, one strand shown; scale: fold enrichment (6-mer frequency, TF over GST control)
[1] = target: ELF1 (UniProt P32519)
[2] = target: T1, ETV4 (UniProt P43268)
T1 sequence: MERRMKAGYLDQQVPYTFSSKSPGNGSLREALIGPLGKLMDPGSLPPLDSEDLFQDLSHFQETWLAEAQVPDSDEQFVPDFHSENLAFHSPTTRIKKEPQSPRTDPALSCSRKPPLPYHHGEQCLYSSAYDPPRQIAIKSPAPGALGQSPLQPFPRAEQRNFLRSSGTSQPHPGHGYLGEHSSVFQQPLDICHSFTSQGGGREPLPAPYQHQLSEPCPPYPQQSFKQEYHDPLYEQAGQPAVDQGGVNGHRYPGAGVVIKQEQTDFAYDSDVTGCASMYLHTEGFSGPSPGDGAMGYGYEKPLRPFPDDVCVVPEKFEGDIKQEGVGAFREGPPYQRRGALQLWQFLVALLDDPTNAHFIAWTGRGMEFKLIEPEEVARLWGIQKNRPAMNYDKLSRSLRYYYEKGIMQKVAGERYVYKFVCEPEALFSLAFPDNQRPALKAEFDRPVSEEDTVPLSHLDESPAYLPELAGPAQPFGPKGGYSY

[3] = target: ETV1 (UniProt P50549)
[4] = target: T2, ERF (UniProt P50548)
T2 sequence: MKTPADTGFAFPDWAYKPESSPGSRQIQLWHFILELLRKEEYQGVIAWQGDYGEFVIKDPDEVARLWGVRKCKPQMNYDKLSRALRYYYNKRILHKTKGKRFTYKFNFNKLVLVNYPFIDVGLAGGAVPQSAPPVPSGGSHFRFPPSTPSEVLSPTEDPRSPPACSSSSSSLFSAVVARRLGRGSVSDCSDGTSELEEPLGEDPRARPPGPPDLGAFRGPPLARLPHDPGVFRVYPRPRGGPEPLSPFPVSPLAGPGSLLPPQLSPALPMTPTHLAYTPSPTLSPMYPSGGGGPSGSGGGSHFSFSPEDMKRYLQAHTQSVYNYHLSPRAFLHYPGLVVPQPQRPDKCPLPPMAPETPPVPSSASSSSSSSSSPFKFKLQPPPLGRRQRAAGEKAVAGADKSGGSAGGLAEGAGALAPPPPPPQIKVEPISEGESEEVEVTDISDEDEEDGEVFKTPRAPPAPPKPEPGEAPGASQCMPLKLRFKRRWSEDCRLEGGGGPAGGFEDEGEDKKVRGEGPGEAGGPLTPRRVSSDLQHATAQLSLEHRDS

| Sequence | binding signal [1] | binding signal [2] | binding signal [3] | binding signal [4] |
| --- | --- | --- | --- | --- |
| GTGGCC | 1.05 | 0.987 | 0.972 | 0.965 |
| TGTTTA | 1.13 | 1.12 | 1.09 | – |
| GTTGAT | 1.11 | 1.17 | 1.09 | – |
| ATGAAG | 1.04 | 1.08 | 0.98 | – |
| TGGCTC | 1.46 | 1.56 | 1.42 | – |
| ACTATG | 1.21 | 1.31 | 1.24 | – |
| TGGAAG | 0.902 | 0.946 | 1.02 | 0.988 |
| TAGCAA | 1.23 | 1.24 | 1.23 | – |
| ACGGCT | 1.08 | 1.24 | 1.05 | – |
| CTGATT | 1.22 | 1.18 | 1.27 | 1.21 |
| CAGCGC | 1.08 | 1.06 | 0.862 | 0.971 |
| TAATTA | – | 1.25 | – | 1.24 |
| ATATTT | – | 1.49 | – | 1.55 |
| CGCAAC | – | 1.04 | – | 0.977 |
| ATTAAA | 1.2 | 1.12 | 1.18 | – |
| AATACG | – | 1.18 | – | 1.23 |
| CCTCGG | – | 1.25 | – | 1.23 |

Single records, from the list above. Order of values: binding signal [1] | binding signal [2] | binding signal [3] | binding signal [4]
TAGCAA is listed as 1.23 | 1.24 | 1.23 | –
ACTATG is listed as 1.21 | 1.31 | 1.24 | –

Next part

| Sequence | binding signal [1] | binding signal [2] | binding signal [3] | binding signal [4] |
| --- | --- | --- | --- | --- |
| TTAAAT | – | 1.12 | – | 1.1 |
| AGGTTT | 0.975 | 1.04 | 1.1 | – |
| GGGCTC | – | 1.21 | – | 1.28 |
| TAGCTT | – | 1.16 | – | 1.29 |
| TGGTTG | – | 1.02 | – | 1.1 |
| CATGCC | 1.16 | 1.18 | 1.12 | – |
| TAGTAG | 0.964 | 0.999 | 0.94 | – |
| CGACGC | 1.16 | 1.12 | 1.01 | – |
| TATAAT | – | 1.15 | – | 1.25 |
| GCCCAT | 1.06 | 1.08 | 0.933 | – |
| TTAGCT | – | 1.28 | – | 1.2 |
| CTATCC | 1.38 | 1.32 | 1.36 | – |
| GTTTTA | – | 1.06 | – | 1.2 |
| CCGTCT | 1.46 | 1.35 | 1.38 | – |
| CTCTAC | – | 1.66 | – | 1.45 |
| CGAACC | – | 1.17 | – | 1.12 |
